Data from patent US7297712B2, “Cationic amphiphiles for intracellular delivery of therapeutic molecules and its composition, process and method of treatment” (Council of Scientific and Industrial Research, priority 2002, dated 2007).
Some results were stated once for a whole list of compounds, not compound by compound. Some compounds share one range, which may span the group rather than tell each member.

Test system: COS-1 cells
Test: MTT based viability assay (toxicity)
Format: cell-based
Conditions: 3:1 charge ratio

Compound	toxicity
CCCCCCCC/C=C\CCCCCCCC[N+]1(CCCCCCCCCCCCCCCCCC)CC(O)C(O)C1 (stereo not drawn) [lipid 5, N-n-octadecyl-N-oleyl-3,4 dihydroxy pyrrolidinium chloride]	15-25 % of the treated cells
CCCCCCCCCCCC[N+]1(CCCCCCCCCCCC)CC(O)C(O)C1 (stereo not drawn) [lipid 1, N,N-di-n-dodecyl-3,4-dihydroxy pyrrolidinium chloride]	15-25 % of the treated cells
CCCCCCCCCCCCCCCCCC[N+]1(CCCCCCCCCCCCCCCCCC)CC(O)C(O)C1 (stereo not drawn) [lipid 4, N,N-di-n-octadecyl-3,4-dihydroxy pyrrolidinium chloride]	15-25 % of the treated cells
